Literature values in US11535824B2, “Nuclear transfer” (Sung Kwang Medical Foundation, priority 2015, dated 2022).
At least one compound was matched to its structure with a doubt left.

Test system: H4R3
Conditions: cited from earlier work

## N=C(N)c1ccc(/C=C/c2ccc(C(=N)N)cc2)cc1 [stilbamidine]
  methylation at H4R3: hypomethylation
